Assay results reported in article PMC3795685.
No constants are given. Whether binding was seen depends on the method and setting. In cells and extracts the contact can be indirect. Here binding means that the protein was enriched with, or labelled near, the bait; the list need not be complete. A no says only that the protein was not detected with the bait. Sequences can lack the tags named with a protein.

By UniProt entry, the sequences of proteins in these tests, tags left out.
UniProt A0A0D9RYS7: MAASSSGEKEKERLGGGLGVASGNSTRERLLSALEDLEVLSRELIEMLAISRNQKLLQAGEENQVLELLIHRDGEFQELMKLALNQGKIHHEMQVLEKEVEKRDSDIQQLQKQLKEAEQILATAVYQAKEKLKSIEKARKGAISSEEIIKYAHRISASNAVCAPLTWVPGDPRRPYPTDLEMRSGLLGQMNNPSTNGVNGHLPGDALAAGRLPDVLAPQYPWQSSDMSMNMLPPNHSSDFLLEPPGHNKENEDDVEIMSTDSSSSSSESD
UniProt A0A0D9RIW4: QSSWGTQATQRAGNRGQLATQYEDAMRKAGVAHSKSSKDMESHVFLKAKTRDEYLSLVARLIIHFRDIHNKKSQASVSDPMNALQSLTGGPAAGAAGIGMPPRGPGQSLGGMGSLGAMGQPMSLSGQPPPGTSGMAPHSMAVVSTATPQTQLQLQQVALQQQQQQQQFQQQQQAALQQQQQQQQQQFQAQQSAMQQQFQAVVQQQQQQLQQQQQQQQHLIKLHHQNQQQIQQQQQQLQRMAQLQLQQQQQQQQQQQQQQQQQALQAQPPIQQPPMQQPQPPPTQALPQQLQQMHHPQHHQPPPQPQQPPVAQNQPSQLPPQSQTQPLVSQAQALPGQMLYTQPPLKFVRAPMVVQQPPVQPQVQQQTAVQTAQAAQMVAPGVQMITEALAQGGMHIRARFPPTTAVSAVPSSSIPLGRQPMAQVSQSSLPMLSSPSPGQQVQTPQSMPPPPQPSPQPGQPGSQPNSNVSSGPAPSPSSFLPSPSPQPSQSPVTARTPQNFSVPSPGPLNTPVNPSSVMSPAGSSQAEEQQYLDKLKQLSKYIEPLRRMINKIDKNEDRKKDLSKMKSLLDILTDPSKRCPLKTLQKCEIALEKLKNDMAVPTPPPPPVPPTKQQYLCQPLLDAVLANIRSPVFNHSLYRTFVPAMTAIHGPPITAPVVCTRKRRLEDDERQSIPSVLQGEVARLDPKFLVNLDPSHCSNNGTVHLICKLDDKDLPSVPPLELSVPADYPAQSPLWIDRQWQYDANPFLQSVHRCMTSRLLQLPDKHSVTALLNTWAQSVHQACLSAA
UniProt A0A0D9RJH3: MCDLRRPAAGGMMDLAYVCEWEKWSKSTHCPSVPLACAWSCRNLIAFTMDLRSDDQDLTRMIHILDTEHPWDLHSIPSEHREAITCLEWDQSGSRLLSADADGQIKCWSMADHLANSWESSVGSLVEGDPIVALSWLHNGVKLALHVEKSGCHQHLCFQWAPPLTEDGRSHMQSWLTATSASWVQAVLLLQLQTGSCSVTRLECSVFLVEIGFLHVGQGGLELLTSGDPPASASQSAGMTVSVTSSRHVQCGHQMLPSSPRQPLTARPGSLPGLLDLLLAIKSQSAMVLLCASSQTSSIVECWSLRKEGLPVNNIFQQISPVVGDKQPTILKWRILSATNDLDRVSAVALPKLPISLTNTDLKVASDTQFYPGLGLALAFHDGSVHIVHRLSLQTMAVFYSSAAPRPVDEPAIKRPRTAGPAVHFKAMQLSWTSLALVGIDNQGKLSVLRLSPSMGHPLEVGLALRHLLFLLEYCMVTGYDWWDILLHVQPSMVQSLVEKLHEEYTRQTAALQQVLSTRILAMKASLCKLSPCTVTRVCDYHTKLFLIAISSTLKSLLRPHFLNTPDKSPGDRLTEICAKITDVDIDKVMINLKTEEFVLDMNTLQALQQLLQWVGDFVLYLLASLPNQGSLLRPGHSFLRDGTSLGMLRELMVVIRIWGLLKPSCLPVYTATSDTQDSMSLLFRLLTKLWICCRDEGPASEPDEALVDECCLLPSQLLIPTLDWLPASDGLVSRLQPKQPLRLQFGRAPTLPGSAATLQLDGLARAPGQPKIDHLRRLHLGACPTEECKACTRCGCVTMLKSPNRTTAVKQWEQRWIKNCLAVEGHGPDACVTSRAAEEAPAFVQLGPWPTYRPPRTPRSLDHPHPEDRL
UniProt A0A0D9S185: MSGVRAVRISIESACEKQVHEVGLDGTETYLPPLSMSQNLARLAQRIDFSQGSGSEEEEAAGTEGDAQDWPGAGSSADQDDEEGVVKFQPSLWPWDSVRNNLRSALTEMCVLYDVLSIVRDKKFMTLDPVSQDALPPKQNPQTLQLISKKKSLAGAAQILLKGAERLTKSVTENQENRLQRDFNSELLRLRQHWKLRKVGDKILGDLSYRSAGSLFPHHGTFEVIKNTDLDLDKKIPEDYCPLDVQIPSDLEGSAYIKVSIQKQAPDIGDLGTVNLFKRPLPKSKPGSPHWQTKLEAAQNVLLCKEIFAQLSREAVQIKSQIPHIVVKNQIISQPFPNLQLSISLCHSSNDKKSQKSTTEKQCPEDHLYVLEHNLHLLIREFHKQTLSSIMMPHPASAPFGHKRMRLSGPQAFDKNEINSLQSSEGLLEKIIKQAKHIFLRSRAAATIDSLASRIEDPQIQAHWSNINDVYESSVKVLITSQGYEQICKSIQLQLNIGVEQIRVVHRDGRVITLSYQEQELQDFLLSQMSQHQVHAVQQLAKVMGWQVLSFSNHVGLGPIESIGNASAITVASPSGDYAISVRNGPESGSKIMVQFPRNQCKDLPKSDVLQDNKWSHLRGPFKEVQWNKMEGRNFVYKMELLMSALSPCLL
UniProt A0A0D9S812: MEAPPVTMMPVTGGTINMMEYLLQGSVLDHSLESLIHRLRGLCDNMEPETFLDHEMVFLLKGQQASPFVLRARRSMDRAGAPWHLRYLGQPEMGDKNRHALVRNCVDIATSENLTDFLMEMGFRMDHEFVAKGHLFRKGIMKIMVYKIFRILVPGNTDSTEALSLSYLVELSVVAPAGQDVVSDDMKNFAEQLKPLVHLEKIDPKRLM

Each substance was assayed against T1, TAP-tagged wild-type Infected Cell Polypeptide 4 (ICP4) of HSV-1 strain KOS (herpes simplex virus type 1 (HSV-1), strain KOS) (UniProt P08392) (assay: affinity purification with mass spectrometry; TAP-tagged ICP4 from nuclear extracts (0.4 M KCl) of Vero cells infected at 10 pfu/cell, harvested 3, 6 or 12 hpi (TAP-n208: 6 hpi); benzonase treated; streptavidin agarose overnight at 4°C; washes with 20 mM Hepes KOH pH 7.9, 200 mM KCl, 2 mM EDTA, 0.1% NP40; elution with 2 mM biotin; LC-MS/MS; untagged KOS or n208 infections as controls).
T1 sequence: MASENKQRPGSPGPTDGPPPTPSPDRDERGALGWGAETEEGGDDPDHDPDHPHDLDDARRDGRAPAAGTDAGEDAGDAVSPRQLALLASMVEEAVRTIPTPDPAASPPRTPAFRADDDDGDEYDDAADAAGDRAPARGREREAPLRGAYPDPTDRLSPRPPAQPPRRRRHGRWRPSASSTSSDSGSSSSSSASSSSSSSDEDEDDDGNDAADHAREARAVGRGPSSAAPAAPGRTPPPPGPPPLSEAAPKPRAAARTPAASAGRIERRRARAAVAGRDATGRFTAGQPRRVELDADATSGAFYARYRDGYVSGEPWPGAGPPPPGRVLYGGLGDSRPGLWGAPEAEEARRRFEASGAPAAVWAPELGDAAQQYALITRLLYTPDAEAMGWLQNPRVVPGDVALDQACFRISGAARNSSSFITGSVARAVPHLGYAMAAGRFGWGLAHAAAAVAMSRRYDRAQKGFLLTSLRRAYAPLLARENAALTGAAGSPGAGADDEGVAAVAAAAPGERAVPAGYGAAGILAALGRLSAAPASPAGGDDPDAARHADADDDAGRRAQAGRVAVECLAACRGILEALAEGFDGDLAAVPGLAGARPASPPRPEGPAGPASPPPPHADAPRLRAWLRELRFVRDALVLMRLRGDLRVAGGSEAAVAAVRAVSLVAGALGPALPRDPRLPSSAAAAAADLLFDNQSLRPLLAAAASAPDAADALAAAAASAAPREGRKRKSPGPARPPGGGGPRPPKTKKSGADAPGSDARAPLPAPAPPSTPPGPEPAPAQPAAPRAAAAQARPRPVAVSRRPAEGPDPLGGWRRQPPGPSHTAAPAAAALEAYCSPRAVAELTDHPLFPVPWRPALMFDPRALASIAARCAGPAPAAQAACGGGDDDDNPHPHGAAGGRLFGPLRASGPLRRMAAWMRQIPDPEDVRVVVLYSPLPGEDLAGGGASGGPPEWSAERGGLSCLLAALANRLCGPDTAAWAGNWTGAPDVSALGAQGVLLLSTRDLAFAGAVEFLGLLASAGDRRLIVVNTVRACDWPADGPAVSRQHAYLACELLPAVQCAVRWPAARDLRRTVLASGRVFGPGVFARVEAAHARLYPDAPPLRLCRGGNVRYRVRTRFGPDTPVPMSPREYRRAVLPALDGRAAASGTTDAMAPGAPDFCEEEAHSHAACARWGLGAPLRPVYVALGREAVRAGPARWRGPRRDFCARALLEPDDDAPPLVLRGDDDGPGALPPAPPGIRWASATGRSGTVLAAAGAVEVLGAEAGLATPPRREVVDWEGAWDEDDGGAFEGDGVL

Substance | binding
ARP5 | binds
BAZ1B kinase | binds
Brahma | binds
CDK7 | no binding
CHD3 | binds
CHD4 | binds
CPSF1 | binds
CPSF2 | binds
CPSF3L | binds
CPSF4 | binds
CPSF5 | no binding
CPSF6 | no binding
CPSF7 | binds
FIP1L1 | binds
HDAC2 | binds
MAT1 | binds
MED1 | binds
MED4 (from UniProt A0A0D9RYS7 1-270) | binds
MED6 | binds
MED7 | binds
MED12 | binds
MED13 | binds
MED14 | binds
MED15 (from UniProt A0A0D9RIW4 1-787) | binds
MED16 (from UniProt A0A0D9RJH3 1-871) | binds
MED17 (from UniProt A0A0D9S185 1-651) | binds
MED18 (from UniProt A0A0D9S812 1-208) | binds

Substance | binding
MED23 | binds
MED25 | binds
MED27 | binds
MED31 | binds
Med26 | no binding
RUVBL1 | binds
RUVBL2 | binds
SMARCA4 | binds
SMARCC2 | binds
TAF1 | binds
TAF2 | binds
TAF3 | binds
TAF4 | binds
TAF5 | binds
TAF6 | binds
TAF7 | binds
TAF8 | binds
TAF9B | binds
TAF10 | binds
TAF11 | binds
TAF12 | binds
TBP | binds
XPB | binds
XPD | binds
cyclin C | binds
cyclin H | no binding
cyclin dependent kinase (CDK) 8 | binds
